Values from PubChem BioAssay AID1259302 (Sanger Institute, 2017).

Purpose: 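Retest in SW1116 cells of candidate synthetic-lethal pairs of kinase and drug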 (follow-up of hits)
Cell system: human SW1116 colorectal cancer cells
Reagent: single siRNA against human genes
Conditions: anchor drugs BYL719 at 1 µM, cetuximab at 5 µg/ml or trametinib at 10 nM, each compared with DMSO vehicle; exposure time not given
Detection: 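Mean replicate viability as a ratio to pooled non-targeting control siRNA, plus per-drug synergy scores comparing siRNA with drug against each given on its own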
Scale: synergy score with trametinib and synergy score with BYL719 and synergy score with cetuximab: higher = stronger synthetic lethal interaction with the drug
Hit rule: 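Active means a synergy score over 0.10 with any one of the three anchor drugs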
The whole screen tested 160 reagents; shown is an unselected part. In the full data, 122 (76%) were called active. 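Most active calls come from the trametinib arm; viability under BYL719 or cetuximab treatment is not printed.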 A number with no mark means an inactive call. The numbers tell different reagents against one gene apart. Further read-outs or replicates are left out here. Reagent sequences are not shown. Not stated in the record: the amount of reagent, the time to read-out.

Target gene,siRNA no.,synergy score with trametinib,synergy score with BYL719,synergy score with cetuximab
PFKFB3,1,0.147 (active),-0.0924,0.0729
PFKFB3,2,0.149 (active),-0.0345,0.0688
PFKFB3,3,0.0621,0.0947,-0.0464
PFKFB3,4,0.193 (active),0.1,0.123
CDKN2D,1,0.352 (active),-0.0441,0.0137
CDKN2D,2,0.248 (active),-0.0122,0.143
CDKN2D,3,0.231 (active),-0.0232,0.115
CDKN2D,4,0.356 (active),0.0623,0.17
COASY,1,0.189 (active),0.0915,0.0895
COASY,2,0.118 (active),-0.0352,0.0889
COASY,3,0.239 (active),0.0684,0.186
COASY,4,0.186 (active),0.0545,0.268
MARK3,1,0.0797,-0.204,-0.141
MARK3,2,0.132 (active),-0.152,-0.114
MARK3,3,0.191 (active),-0.0464,-0.00264
MARK3,4,0.249 (active),-0.193,-0.0378
CAMK2N1,1,-0.0265,-0.0978,-0.124
CAMK2N1,2,0.0558 (active),0.165,0.0271
CAMK2N1,3,0.167 (active),-0.0341,0.0392
CAMK2N1,4,-0.00923,-0.141,-0.066

2 neighbouring records from above:
Target gene,siRNA no.,synergy score with trametinib,synergy score with BYL719,synergy score with cetuximab
MARK3,2,0.132 (active),-0.152,-0.114
MARK3,3,0.191 (active),-0.0464,-0.00264
